# Experimental data as given in the supplement of paper PMC12669797.
# This is a selection; strong and weak results do not stand in their true shares.
# System: TOV-21G
# Test: cell viability relative to DMSO control (MTS) (fraction of DMSO control); higher = more viable cells / less growth inhibition
# Details: 10 µM; 48 h
# Procedure: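 SCADS inhibitor kit III (367 inhibitors) screened at 10 µM final concentration on TOV-21G (HNF-1ß positive) and ES2 (HNF-1ß negative) ovarian clear cell carcinoma cells seeded at 5000 cells/well in 96-well plates. Cell viability was read by MTS assay 48 h after compound addition and expressed relative to DMSO control wells (N=3).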
row,Structure (SMILES),cell viability
1,O=C1Nc2ccc(-c3cccnc3)cc2/C1=C/c1ccc[nH]1 [JAK3 Inhibitor VI],0.49
